Reference: patent publication US20220062165A1, “COMPOSITIONS AND METHODS FOR INTRANASAL DELIVERY OF PREGNENOLONE” (M et P Pharma AG, priority 2018, published 2022)

System: extracellular acetylcholine levels in the amygdala
Experiment: In vivo microdialysis after lateralized intranasal administration (one nostril), amygdala
Parameters: species or system rat
Settings: 11.2 mg/mL, 5 μl one nostril
Description: Subjects. A total number of 10 adult male Wistar rats 3-4 months of age and weighting between 400 and 500 grams, at the time of surgery, were obtained from the local animal facility (Tierversuchsanlage, University of Dusseldorf, Germany). They were grouped 4 per cage (Makrolon cage, type IV, 60.0×20.0×38.0 centimeter), and separated into individual cases after the surgery. They were housed under a reversed light-dark cycle (light off from 7 after midnight (AM) to 7 post meridiem (PM)), with free access to food and water. […] After two weeks of adaptation, animals underwent microdialysis as described below. All experiments were carried out in accordance with the European Communities Council Directive (86/609/EEC) on animal welfare, and approved by the German Animal Protection Law Authorities—LANUV Nordrhein-Westfalen.
Surgery. Rats underwent implantation of microdialysis probes into specific brain areas. They were anesthetized with a mixture of ketamine hydrochloride (90.0 milligram/kilogram (mg/kg); Pharmacia & Upjohn) and xylazine hydrochloride (8.0 mg/kg; Bayer) and placed in a stereotaxic frame (David Kopf Instruments). Additionally, Bupivacaine (2.5 milligram/milliliter(mg/mL), injection volume 0.1 milliliter (mL) above the skull; Bucain, Deltaselect HmbH) was applied as a local anesthetic. Two guide cannulae (14 millimeter (mm) long, 26 gauge) for microdialysis probes were implanted in both the right and left amygdala (Anteriorposterior (AP):—2.5 mm; Mediolateral (ML): ±4.6 mm; Dorsoventral (DV):—7.2 mm). All coordinates were relative to bregma according to a rat brain atlas (Paxinos G, Watson C (1986) THE RAT BRAIN IN STEREOTACTIC COORDINATES (Academic, New York), 2nd Edition). For additional fixation of the implant, two stainless steel screws of 2.6 mm were fastened to the skull. In order to reduce postoperative pain, Carprofen (5 mg/kg Rimadyl, Pfizer) carried by phosphate-buffered saline (Dulbecco's Phophate Buffered Saline (PBS), Life Technologies Ltd) was injected into the head-neck area with an injection volume of 1 mg/kg (0.1 milliliter/kilogram carprofen and 0.9 milliliter/kilogram Phophate Buffered Saline (PBS)). The animals were allowed to recover from surgery for 3 to 6 days before the microdialysis was performed.
Microdialysis. Prior the microdialysis process, the animals were anesthetized with Urethane intraperitoneal injection. (1.25 gram/kilogram, Sigma Aldrich). To allow fluid supply (perfusion liquid) (Ringer's solution 0.2 milliliter every 20 minutes) without physical contact with the animal, a catheter was placed into the intraperitoneal cavity. The animal was placed in an acrylic box (45×25×22 centimeter), and the body temperature was monitored and held stable at 36.5±0.5 degrees Celsius by atemperature controller (CMA/150) and a heating pad. The inlet tubes were connected to a microinfusion pump (CMA/100) and were perfused with Ringer's solution containing Neostigmine (10 micromoles) with a flow rate of 2 microliter/minute (perfusate). The fluid rate of the fluid flowing through the probe was thus controlled by the syringe pump. Neostigmine is a cholinesterase inhibitor which was perfused in order to obtain levels of acetylcholine easily detectable with the HPLC method currently available (sensitivity limits 50-100 femtomole/injection). The inhibition of cholinesterase caused continuous occupation of muscarinic presynaptic inhibitory receptors, thereby maintaining an inhibitory tone which controlled acetylcholine release from the cholinergic terminal. de Boer, P. et al., “The effect of acetylcholinesterase inhibition on the release of acetylcholine from the striatum in vivo: interaction with autoreceptor responses,” Neurosci. Lett., 116, 357-360 (1990). The perfusate was designed to have a lower concentration compared to the area surrounding the probe, which ensured that the flow of the flux went into the probe and not the other way around. […]

CC(=O)[C@H]1CC[C@H]2[C@@H]3CC=C4C[C@@H](O)CC[C@]4(C)[C@H]3CC[C@]12C [pregnenolone]
Difference in extracellular release of acetylcholine (ipsilateral vs. contralateral amygdala), t-test p (10 min after administration): −4.024, p = 0.003
Difference in extracellular release of acetylcholine (ipsilateral vs. contralateral amygdala), t-test p (20 min after administration): −4.383, p = 0.0001
Difference in extracellular release of acetylcholine (ipsilateral vs. contralateral amygdala), t-test p (30 min after administration): −4.287, p = 0.001
Difference in extracellular release of acetylcholine (ipsilateral vs. contralateral amygdala), t-test p (40 min after administration): −3.411, p = 0.003.
Difference in extracellular release of acetylcholine (ipsilateral vs. contralateral amygdala), t-test p (50 min after administration): −5.764, p = 0.0001
Difference in extracellular release of acetylcholine (ipsilateral vs. contralateral amygdala), t-test p (60 min after administration): −4.364, p = 0.001
Difference in extracellular release of acetylcholine (ipsilateral vs. contralateral amygdala), t-test p (70 min after administration): −3.911, p = 0.001
Difference in extracellular release of acetylcholine (ipsilateral vs. contralateral amygdala), t-test p (80 min after administration): −3.737, p = 0.002
Difference in extracellular release of acetylcholine (ipsilateral vs. contralateral amygdala), t-test p (90 min after administration): −3.896, p = 0.003
Difference in extracellular release of acetylcholine (ipsilateral vs. contralateral amygdala), t-test p (100 min after administration): −4.036, p = 0.001
